Assay results published in article PMC5961436, “PKA and PKC Modulators Affect Ion Channel Function and Internalization of Recombinant Alpha1 and Alpha1-Beta Glycine Receptors” (Frontiers in Molecular Neuroscience, 2018).

Key:
human homomeric α1 GlyRs = experiment: Whole-cell patch-clamp of glycine induced currents, modulators in the intracellular buffer, HEK293 cells expressing GlyR α1; assay type: cell-based; details: 0.5 μM modulator in intracellular buffer, mean ± SEM
Protocol: (§1) HEK293 cells were grown in 10 cm tissue culture Petri dishes in Eagle minimal essential medium (Sigma-Aldrich Chemie GmbH, Munich, Germany) supplemented with 10% FBS (Invitrogen, Karlsruhe, Germany) and penicillin/streptomycin (Sigma-Aldrich Chemie GmbH, Munich, Germany) at 5% CO2 and 37°C in a water saturated atmosphere. For electrophysiological experiments, cells were plated on poly-L lysine treated glass coverslips in 6 cm dishes. Transfection was performed 1 day after cell passage using Gen-Carrier (Epoch Lifesciences, Sugarland, TX, USA): 1.3 μg of receptor DNA, 1.3 μg of green fluorescent protein DNA, and 2.6 μl GenCarrier were used, following the manufacturer’s instructions. Measurements were performed 2–4 days after transfection. HEK293 cells used for protein expression and internalization analysis were transfected using a modified calcium phosphate precipitation method. In brief, a mixture of plasmid DNA, CaCl2 (2.5M), 0.1× TE buffer and 2× HBS (50 mM HEPES, 12 mM glucose, 10 mM KCl, 280 mM NaCl, 1.5 mM Na2HPO4) was applied onto the cells for 6 h. A GlyR α1 to GlyR β ratio of 1:2 was used for co-expression. Transfection medium was replaced by fresh medium after 6 h. Immunocytochemical stainings were always done 24 h after transfection, biotinylation experiments were performed 48 h after transfection.
(§2) using a nonlinear algorithm in Microcal Origin. Here, Iglycine is the current amplitude at a given glycine concentration, Isat is the maximum current amplitude at saturating concentrations of glycine, EC50 is the glycine concentration at half-maximal current responses, and nHill is the Hill coefficient. Currents from each individual cell were normalized to the maximum response at saturating glycine concentrations. Significance of differences between EC50 values were determined using one-way ANOVA with p ≤ 0.05 (*) and p ≤ 0.01 (**) taken as significant. In all experiments, EC50 values were determined for each individual cell from a non-linear fit of dose response data to the logistic equation. An unweighted average ± standard error (SEM) was calculated from all individual EC50 values, without considering the fitting errors.
(§3) For time course analysis, a series of EC50 data was recorded from each cell. The first concentration-response curve, defined as t = 0, was recorded immediately after establishing the whole-cell configuration and positioning the cell in front of the delivery tube. […] Further recordings were made at t = 3 min, t = 6 min and t = 10 min (not attained with all cells). […] Since control EC50 values varied between different days of plating and between batches of cells, measurements with kinase modulators were always compared to control measurements recorded on the same day and from the same batch of cells.

[1] = test system: human heteromeric α1-β GlyRs; experiment: Whole-cell patch-clamp of glycine induced currents, modulators in the intracellular buffer, HEK293 cells expressing GlyR α1-β; assay type: cell-based; details: 0.5 μM modulator in intracellular buffer, mean ± SEM
Protocol: as §1, §2, §3

Structure (SMILES)	nH (human homomeric α1 GlyRs)	nH [1]
CCCCCCCCCCCCCC(=O)O[C@@H]1[C@@H](C)[C@@]2(O)[C@@H](C=C(CO)C[C@]3(O)C(=O)C(C)=C[C@@H]23)[C@@H]2C(C)(C)[C@]12OC(C)=O [PMA, phorbol-12-myristate-13-acetate]	1.70 ± 0.11	2.00 ± 0.19
O=C1NCc2c1c1c3ccccc3[nH]c1c1[nH]c3ccccc3c21 [Staurosporine aglycon]	1.96 ± 0.17	1.82 ± 0.12
O=S(=O)(NCCNC/C=C/c1ccc(Br)cc1)c1cccc2cnccc12 [H-89]	2.10 ± 0.27	2.31 ± 0.21
C=C[C@@]1(C)CC(=O)[C@]2(O)[C@@]3(C)[C@@H](O)CCC(C)(C)[C@@H]3[C@H](O)[C@H](OC(C)=O)[C@@]2(C)O1 [Forskolin]	2.20 ± 0.26	1.95 ± 0.14
